For at least one compound, name, drawing or mass did not settle the structure.
System: Wnt/β-catenin
Assay: β-catenin stabilization (Wnt pathway activation) in RKO cells (Western blot)
Assay type: cell-based
Set-up: key to the marks not given beside the values
Conditions: 16 hours
Protocol: Primary Screen in RKO cells for compounds having typical CKIα inhibitory activity (β-catenin and p53 stabilization and histone H2AX phosphorylation; see Elyada et al, Nature 2011 Feb. 17; 470(7334):409-13; Pribluda et al, Cancer Cell 2013 Aug. 12; 24(2):242-56). RKO colorectal cells were incubated with 10 μM of each of the compounds for 16 hours at 37° C. Cells were washed with PBS and cell pellets were incubated with ice cold protein lysis buffer containing protease inhibitor cocktail (1/200; Calbiochem) and phosphatase inhibitors (20 mM p-nitrophenyl phosphate (PNPP), 20 mM β-glycerophosphate and 300 nM okadaic acid). Western blot analysis was performed by means of standard techniques. Blots were incubated with antibodies detecting β-catenin (1/2,500; BD Transduction), p53 (DO-1&1801 hybridoma mix; dilution of 1:20 of supernatants from each), CKIα (C-19; 1/1,000; Santa Cruz Biotechnology) and phospho-histoneH2AX (S139; 1/1,000; Millipore). […]
Active compounds were further analyzed in a dose-response experiment (FIGS. 1A and 1B). […]
Table 1 provides quantified information for compounds of the invention in activation of p53 and DNA damage response (DDR) and β-catenin stabilization as an indicator of Wnt pathway activation. p53 activation was determined according to the degree of protein stabilization in several Western blot assays (Western blot examples are shown in FIGS. 1A and 1B). […]

Structure (SMILES): Cn1ncc(-c2nc(NC3CCC(C)(N)CC3)ncc2Cl)c1CC1CC1 [Compound A30-1, (1R,4R)—N^1-(5-chloro-4-(5-(cyclopropylmethyl)-1-methyl-1H-pyrazol-4-yl)pyrimidin-2-yl)-4-methylcyclohexane-1,4-diamine]
- β-Catenin activity: ++

Source: patent US12514859B2, “Pyrazole pyrimidine derivative and uses thereof” (Yissum Research Development Company of the Hebrew …, priority 2015, dated 2026)
